According to PubChem BioAssay AID220 (DTP/NCI, 2004):
The list shows only some results of the screen, not a fair sample: its compounds were picked by chemical class. Other doses and runs of a compound may be missing. T/C is the treated group as % of the vehicle group. Schedules are NCI's codes, read here as Q, the interval in days (D) or hours (H), X, the number of doses. Some T/C values carry the count of animals alive at the toxicity check; where neither a count nor a note follows, no animal had died by that day. Some entries give survivors of the animals treated and no T/C: the source files T/C as zero there, which appears to mark a toxic dose or a test without result, not a measured value. Survivors were counted at the toxicity check; its day is shown where the source gives one, and later deaths do not show. Some entries were tested several times; the values are given in rising order.

Tested on: CD8F1 mice, subcutaneous mammary adenocarcinoma, T/C%
Experiment: NCI In Vivo Anticancer Drug Screen. Data for tumor model Mammary Adenocarcinoma CD8F1 (subcutaneous) in CD8F1
Settings: T/C endpoint: median tumor weight change, schedule: Q01DX001 (ip), vehicle: water, higher T/C = larger tumour
Description: The antitumor activity of compounds was measured in mice bearing transplantable tumors. Survival or tumor size were measured and the results are expressed as the measurement made in the treated group (T) divided by the measurement made in the vehicle treated control group (C). The tumor model used in this assay is Mammary Adenocarcinoma CD8F1 (subcutaneous) in CD8F1

## NC1CCCCC1.NP(=O)(O)N(CCCl)CCCl
dose: 25.0 mg/kg/injection, evaluated on day 28
  T/C: 108 % of control
dose: 25.0 mg/kg/injection, evaluated on day 35
  T/C: 57 % of control
dose: 50.0 mg/kg/injection, evaluated on day 28
  T/C: 133 % of control
dose: 50.0 mg/kg/injection, evaluated on day 33
  T/C: 21 % of control
dose: 50.0 mg/kg/injection, evaluated on day 35
  T/C: 58 % of control
dose: 50.0 mg/kg/injection, evaluated on day 37
  T/C: 72 % of control
dose: 100.0 mg/kg/injection, evaluated on day 28
  T/C: 63 % of control
dose: 100.0 mg/kg/injection, evaluated on day 33
  T/C: 29 % of control
dose: 100.0 mg/kg/injection, evaluated on day 35
  T/C: 8 % of control
dose: 100.0 mg/kg/injection, evaluated on day 37
  T/C: 17 % of control
dose: 200.0 mg/kg/injection, evaluated on day 28
  T/C: 36 % of control
dose: 200.0 mg/kg/injection, evaluated on day 33
  T/C: 12 % of control [9 of 10 alive on day 33]
dose: 200.0 mg/kg/injection
  survivor count: 0 of 10 on day 37 and 3 of 10 on day 35
dose: 400.0 mg/kg/injection, evaluated on day 28
  T/C: 38 % of control [7 of 10 alive on day 28]
dose: 400.0 mg/kg/injection
  survivor count: 0 of 10 on day 33, 0 of 10 on day 35, 1 of 10 on day 37
